In PubChem BioAssay AID624133 (Broad Institute, 2012) one finds activity change, negative = inhibition data, which are given here for 8 compounds.

Each structure is given as a SMILES string. The campaign covered roughly 1,600 compounds. About 1,300 (81%) were called active. How the calls were made is not given here. So high a share suggests a set chosen from earlier hits. The entries are a selection whose mix differs from that of the whole data set. Potency and affinity values are given separately.

The test in a line: non-specific 3'UTR reporter inhibition in Clone20-Shn3RL – cell-based, Renilla luciferase, cherry-picked, counter-screen for Shn3 inhibitor project, dose response (AID 624133).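 Further: 0% = neutral control wells and -100% = positive control wells.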 To be noted: Clone20-Shn3RL cells, Renilla luciferase luminescence, 24 h; at 35 µM (top of the series).
For `COC(=O)C1=C(c2ccc(-c3ccccc3)c(F)c2)C[C@@H]2CC[C@H]1N2C(=O)N1CCCC1`, the activity change, negative = inhibition was -62.5%.
Consider `CCN1C[C@]2(COC)CC[C@H](OC)[C@@]34C1[C@]1(OCO[C@@]15C[C@H](OC)[C@H]1C[C@@H]3[C@@H]5[C@H]1OC)[C@@H](O)[C@H]24`, for which the activity change, negative = inhibition stood at 50%.
For the compound `C[C@H]1CCC/C=C/[C@@H]2C[C@H](O)C[C@H]2[C@H](O)/C=C/C(=O)O1`, the activity change, negative = inhibition came to 5.56%.
The figure for `C=C1C(=O)O[C@H]2[C@H]1[C@H](OC(=O)CC(=O)O[C@@H]1C[C@@H](C)[C@@H]3C=CC(=O)[C@@]3(C)[C@H]3OC(=O)C(=C)[C@H]13)C[C@@H](C)[C@H]1C=CC(=O)[C@]12C` is -112%; for `CC(=O)O[C@H]1CCC2C3CC[C@H]4[C@@H](O)[C@H](O)CC[C@]4(C)C3CC[C@@]21C` (stereo partly drawn) it is 46.7%; for `C[C@]12CCC3C(CC[C@H]4C[C@H](O)CC[C@]34C)C1CCC2=O` (stereo partly drawn) it is 70.8%.
As for `CCOC(=O)C1C(=O)NC2(C)CC1c1cc(OC)ccc1O2` (stereo not drawn), the activity change, negative = inhibition came to 25%.
The same measure for `COc1cccc2c1O[C@H]1C(=O)CC[C@H]3CN(C)CCC231` (stereo partly drawn): 25%.
